Assay [1] has as its target T1, ARTN protein (Novoprotein, Cat# CR34) (human) (UniProt Q5T4W7).
T1 sequence (looked up): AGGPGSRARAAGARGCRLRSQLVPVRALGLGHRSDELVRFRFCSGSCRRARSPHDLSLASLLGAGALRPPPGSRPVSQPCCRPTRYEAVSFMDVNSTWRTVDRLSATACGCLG
Description: ELISA, ARTN coated, antibody from 2,000 nM.

In assay [2] the target is T2, NRTN protein (Novoprotein, Cat# CE27) (human) (UniProt Q99748).
T2 sequence (looked up): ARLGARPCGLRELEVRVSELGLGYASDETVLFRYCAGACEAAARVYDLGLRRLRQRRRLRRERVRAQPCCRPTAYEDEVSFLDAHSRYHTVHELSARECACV
As to the kind of experiment: ELISA, NRTN coated, antibody from 2,000 nM. Background: ELISA stands for enzyme-linked immunosorbent assay.

The target of assay [3] is T3, human GDF15 protein (Novoprotein, Cat# DRA26) (human) (UniProt Q99988).
T3 sequence (looked up): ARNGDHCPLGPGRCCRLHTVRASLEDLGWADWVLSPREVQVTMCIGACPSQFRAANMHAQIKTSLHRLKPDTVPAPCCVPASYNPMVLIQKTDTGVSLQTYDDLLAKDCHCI
As to the kind of experiment: ELISA, human GDF15 coated.

No constants are given. Whether binding was seen depends on the method and setting. Some binding calls cover weakened binding; strength is not graded here. Sequences can lack the tags named with a protein.

B1: LN06 GDF15 heavy chain single-domain antibody (full-length, VHH joined to human IgG1 Fc) (antibody, V domains shown)
VH: QLQLVESGGGLVQPGGSLRLSCVASGFTLDDYAIGWFRQAPGKGLEGVSCISSSDESTYYADSVKGRFTISRDNAKNTAYLQMNSLKPEDTAIYYCAADTECPVQVTSMAWGQGTQVTVSS
notes: expressed in CHO cells; No light chain; also called LN06 full-length
As to B1, the binding result in assay [1] and in assay [2] was “binds” throughout.

B2: LN05 GDF15 heavy chain single-domain antibody (full-length, VHH joined to human IgG1 Fc) (antibody, V domains shown)
VH: QVQLVESGGGLVQPGGSLRLSCAASGFTLDYYAIGWFRQAPGKGREGVSCISSNDGSTYYSDSVKGRFTTSRDNAKNTVYLQMNSLKPEDTAVYYCAADLTPCPVNPSVDHYWGQGTQVTVSS
notes: expressed in CHO cells, Protein A purified; No light chain; also called LN05 full-length
As for B2, the binding entry in assay [1] and in assay [2] was “binds” throughout.

B3: LN25 GDF15 heavy chain single-domain antibody (full-length, VHH joined to human IgG1 Fc) (antibody, V domains shown)
VH: QLQLVESGGGEVQPGGSLRLSCAASGATLDDLSIGWFRQAPGKGLEGVSCISSSDGSTYYADSVKGRFTISRDNAKNTAYLQMNSLRPEDTAVYYCAADREDCPVQPWGIVAGTSRGQGTQVTVSS
notes: expressed in CHO cells; No light chain; also called LN25 full-length
For the molecule B3, the binding result in assay [1] and in assay [2] was “binds” in each case.

B4: LN11 GDF15 heavy chain single-domain antibody (VHH joined to human IgG1 Fc) (antibody, V domains shown)
VH: QVQLVESGGGLVQPGGSLRLSCAASGFTIRTYTMSWYRQAPGKERALVAYITPGGPTYHIDSVKGRFTISRNNAENTVYLQMNSLKPEDTAVYYCGNGFGSWGQGTQVTVSS
B4: the binding result in assay [3] was “binds”.

B5: LN13 GDF15 heavy chain single-domain antibody (full-length, VHH joined to human IgG1 Fc) (antibody, V domains shown)
VH: QLQLVESGGGLVQPGGSLRLSCAASGFTLDYYAIGWFRQAPGKGPEAVSCISSSDGSTYYSDSVKGRFTISRDNAKNTVYLQMNSLKPEDTAVYYCAAGEYGSDCPVQVGSWGQGTQVTVSS
notes: expressed in CHO cells; No light chain; also called LN13 full-length
B5: the binding entry in assay [1] and in assay [2] was “binds” each time.

(Values after EP4692116A1 (Kexing Biopharm Co., Ltd., dated 2026).)
